# Some of the results follow.
# B1: Awp3 (Candida glabrata), B4UN32 (protein)
# chain: MISFVTLLAILGLLSISWADQTVRSVAGDQRVTDPVIVGDNSILDYYGGSNYDFSNNFEIGRGTLYIGKESYFSSFQSAPTDVPNSFHLLIKNTNNLQNNGQFIIENIKRHANQCSNSSIQVFPINFQNDGEFEIISGGVEGRCCLPTSVIAPQNFLNNGKFYYKVLTDTGSIYSGSCMQNVDIGASTTTTVNNNLWEFTGSINAQINGAVSGAAQINLDGSNMFVNANTFSGQVVNLINGGSFLQTSDPLSNIVVINGLGTSDTGVTSIAVKGKGKSFTYNPSSGIVKLTTVEGKTYAYQIGCGYNTKKFITNNDSGASYESADNFFVLTYSEPYSPQTCQLENSSIFSSNFISTSTSSSSSSSSASSLPSSMSSSLPSSLSSSLSSSLSSSMSSSMSSLFIIPPPYTTTRSSGSSIIDTEIVSFYSTTDSPGHTITGTTTTTLYGPHTHSSVSTPSSSSESSTTSNSSIESSSLPHTSVSSTPESSITPSSNTISSSPTSDFSSVQSSSIMESSSVVASSSVINSSSIVDSSSSSASSLPSSMSSSLSSSMSSSLPSSMSSSLSSSLSSSLSSSMSSSMSSLFIIPPPYTTTRSSGSSIIDTEIVSFYSTTDSPGHTITGTTTTTLYGPHTHSSVSTPSSSSESSTTSNSSIESSSLPHTSVSSTPESSITPSSNTISSSPTSDFSSVQSSSIMESSSVVASSSVINSSSIVDSSSSSASSLPSSMPSSLPSSMSSSLSSSMSSSLSSSLSSSLSSSMSSSMSSLFIIPPPYTTTRSSGSSIIDTEIVSFYSTTDSPGHTITGTTTTTLYGPHTHSSVSTPSSSSESSTTSNSSIESSSLPHTSVSSTPESSITPSSNTISSSPTSDFSSVQSSSIMESSSVVASSSATQSSSVINSSSIVDSSSSSASSLPSSMPSSLPSSLSSSLSSSLSSSMSSSMSSLFIIPPPYTTTRSSGSSIIDTEIVSFYSTTDSPGHTITGTTTTTLYESSIYSSSSSTIQESELSNTSRTTMTSNSSVSISSTSSRSSFSNTKSSTIVISQSASLPDSKTDIILSTSSNIGYSSRSLLSDLGTSISDSDIHHSVLHSTESYSSNESGTNPFTSIASLSNFIPESSSHTSTALGSENSVISSDILTTMSHPVATNSGDKPTTPKRSEQVSTTMTSSGPTPDTSSFDTDGMSAYSRPEFTTNSLEVNKSSTSQLGNNKQTFSNLQLESTRPHSENEVDNNTRLLQSIQQSSTYGTNNVNPLSPTGSISIPLTEDGQGDNNNWNSPATNDLCTQISFNLTATTITVTDRITITDSIHDISSEVITSYIYQTIVDQKTVTQTVDGKSLANKMSSIPKPSSRSLIQPQPPVAIELQEGAASTSRVSLVSLFISIILVLL
# Tests used:
# Test in all cases: glycan array binding signal (z-score within array); higher = stronger binding
# Details in all cases: glycan notation: IUPAC condensed, linker removed
# Neu5Ac(a2-3)GalNAc = target: Neu5Ac(a2-3)GalNAc
# Summary of the method: (§1)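 The binding signal is a Z-score computed within each array and averaged over linkers. Arrays of the same protein sequence at different concentrations or buffers were also averaged together. Data originate from 3228 arrays in the Consortium for Functional Glycomics database, kept only where the protein sequence was available.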
# [1] = target: Neu5Ac(a2-3)GalNAc(b1-4)GlcNAc
# Summary of the method: as §1
# [2] = target: Neu5Ac(a2-3)[GalNAc(b1-4)]Gal(b1-4)Glc
# Summary of the method: as §1
# [3] = target: Neu5Ac(a2-3)[GalNAc(b1-4)]Gal(b1-4)GlcNAc
# Summary of the method: as §1
# [4] = target: Neu5Ac(a2-3)[GalNAc(b1-4)]Gal(b1-4)GlcNAc(b1-3)GalNAc
# Summary of the method: as §1
# [5] = target: Neu5Ac(a2-3)[Neu5Ac(a2-6)]GalNAc
# Summary of the method: as §1
# Neu5Ac(a2-6)Gal = target: Neu5Ac(a2-6)Gal
# Summary of the method: as §1
# [6] = target: Neu5Ac(a2-6)Gal(b1-3)GlcNAc(b1-3)[Gal(b1-4)GlcNAc(b1-6)]Gal(b1-4)Glc
# Summary of the method: as §1
# Neu5Ac(a2-6)Gal(b1-4)Glc = target: Neu5Ac(a2-6)Gal(b1-4)Glc
# Summary of the method: as §1
# [7] = target: Neu5Ac(a2-6)Gal(b1-4)GlcNAc
# Summary of the method: as §1
# [8] = target: Neu5Ac(a2-6)Gal(b1-4)GlcNAc(b1-2)Man
# Summary of the method: as §1
# [9] = target: Neu5Ac(a2-6)Gal(b1-4)GlcNAc(b1-2)Man(a1-3)Man(b1-4)GlcNAc(b1-4)GlcNAc
# Summary of the method: as §1
# [10] = target: Neu5Ac(a2-6)Gal(b1-4)GlcNAc(b1-2)Man(a1-3)[Gal(b1-4)GlcNAc(b1-2)Man(a1-6)]Man(b1-4)GlcNAc(b1-4)GlcNAc
# Summary of the method: as §1
# [11] = target: Neu5Ac(a2-6)Gal(b1-4)GlcNAc(b1-2)Man(a1-3)[GlcNAc(b1-2)Man(a1-6)]Man(b1-4)GlcNAc(b1-4)GlcNAc
# Summary of the method: as §1
# [12] = target: Neu5Ac(a2-6)Gal(b1-4)GlcNAc(b1-2)Man(a1-3)[GlcNAc(b1-4)][Neu5Ac(a2-6)Gal(b1-4)GlcNAc(b1-2)Man(a1-6)]Man(b1-4)GlcNAc(b1-4)GlcNAc
# Summary of the method: as §1
# [13] = target: Neu5Ac(a2-6)Gal(b1-4)GlcNAc(b1-2)Man(a1-3)[Man(a1-6)]Man(b1-4)GlcNAc(b1-4)GlcNAc
# Summary of the method: as §1
# [14] = target: Neu5Ac(a2-6)Gal(b1-4)GlcNAc(b1-2)Man(a1-3)[Neu5Ac(a2-3)Gal(b1-4)GlcNAc(b1-2)Man(a1-6)]Man(b1-4)GlcNAc(b1-4)GlcNAc
# Summary of the method: as §1
# [15] = target: Neu5Ac(a2-6)Gal(b1-4)GlcNAc(b1-2)Man(a1-3)[Neu5Ac(a2-6)Gal(b1-4)GlcNAc(b1-2)Man(a1-6)]Man(b1-4)GlcNAc(b1-4)GlcNAc
# Summary of the method: as §1
# [16] = target: Neu5Ac(a2-6)Gal(b1-4)GlcNAc(b1-2)Man(a1-3)[Neu5Ac(a2-6)Gal(b1-4)GlcNAc(b1-2)Man(a1-6)]Man(b1-4)GlcNAc(b1-4)[Fuc(a1-6)]GlcNAc
# Summary of the method: as §1
# [17] = target: Neu5Ac(a2-6)Gal(b1-4)GlcNAc(b1-2)Man(a1-6)Man(b1-4)GlcNAc(b1-4)GlcNAc
# Summary of the method: as §1
# [18] = target: Neu5Ac(a2-6)Gal(b1-4)GlcNAc(b1-2)Man(a1-6)[Gal(b1-4)GlcNAc(b1-2)Man(a1-3)]Man(b1-4)GlcNAc(b1-4)GlcNAc
# Summary of the method: as §1
# [19] = target: Neu5Ac(a2-6)Gal(b1-4)GlcNAc(b1-2)Man(a1-6)[GlcNAc(b1-2)Man(a1-3)]Man(b1-4)GlcNAc(b1-4)GlcNAc
# Summary of the method: as §1
binder,measurement,setting,value
B1,glycan array binding signal (z-score),Neu5Ac(a2-3)GalNAc,-0.42
same,glycan array binding signal (z-score),[1],-0.432
same,glycan array binding signal (z-score),[2],-0.29
same,glycan array binding signal (z-score),[3],-0.82
same,glycan array binding signal (z-score),[4],-1.1
same,glycan array binding signal (z-score),[5],-0.108
same,glycan array binding signal (z-score),Neu5Ac(a2-6)Gal,-0.738
same,glycan array binding signal (z-score),[6],-0.493
same,glycan array binding signal (z-score),Neu5Ac(a2-6)Gal(b1-4)Glc,-0.409
same,glycan array binding signal (z-score),[7],-1.29
same,glycan array binding signal (z-score),[8],-0.199
same,glycan array binding signal (z-score),[9],-0.609
same,glycan array binding signal (z-score),[10],-1.31
same,glycan array binding signal (z-score),[11],-1.05
same,glycan array binding signal (z-score),[12],0.932
same,glycan array binding signal (z-score),[13],0.414
same,glycan array binding signal (z-score),[14],-1.55
same,glycan array binding signal (z-score),[15],-0.993
same,glycan array binding signal (z-score),[16],2.07
same,glycan array binding signal (z-score),[17],1.39
same,glycan array binding signal (z-score),[18],1.17
same,glycan array binding signal (z-score),[19],0.603

# Two entries drawn at random from the list so far:
binder,measurement,setting,value
B1,glycan array binding signal (z-score),[17],1.39
same,glycan array binding signal (z-score),[1],-0.432

# — the supplement of paper PMC8728848
